Source: publication PMC5341751

B1: monocarboxylate transporter MCT4 (protein, UniProt O15427 1-465)
chain: MGGAVVDEGPTGVKAPDGGWGWAVLFGCFVITGFSYAFPKAVSVFFKELIQEFGIGYSDTAWISSILLAMLYGTGPLCSVCVNRFGCRPVMLVGGLFASLGMVAASFCRSIIQVYLTTGVITGLGLALNFQPSLIMLNRYFSKRRPMANGLAAAGSPVFLCALSPLGQLLQDRYGWRGGFLILGGLLLNCCVCAALMRPLVVTAQPGSGPPRPSRRLLDLSVFRDRGFVLYAVAASVMVLGLFVPPVFVVSYAKDLGVPDTKAAFLLTILGFIDIFARPAAGFVAGLGKVRPYSVYLFSFSMFFNGLADLAGSTAGDYGGLVVFCIFFGISYGMVGALQFEVLMAIVGTHKFSSAIGLVLLMEAVAVLVGPPSGGKLLDATHVYMYVFILAGAEVLTSSLILLLGNFFCIRKKPKEPQPEVAAAEEEKLHKPPADSGVDLREVEHFLKAEPEKNGEVVHTPETSV
B2: alanine/serine/cysteine transporter 2 (ASCT2) (protein, UniProt Q15758 1-541)
chain: MVADPPRDSKGLAAAEPTANGGLALASIEDQGAAAGGYCGSRDQVRRCLRANLLVLLTVVAVVAGVALGLGVSGAGGALALGPERLSAFVFPGELLLRLLRMIILPLVVCSLIGGAASLDPGALGRLGAWALLFFLVTTLLASALGVGLALALQPGAASAAINASVGAAGSAENAPSKEVLDSFLDLARNIFPSNLVSAAFRSYSTTYEERNITGTRVKVPVGQEVEGMNILGLVVFAIVFGVALRKLGPEGELLIRFFNSFNEATMVLVSWIMWYAPVGIMFLVAGKIVEMEDVGLLFARLGKYILCCLLGHAIHGLLVLPLIYFLFTRKNPYRFLWGIVTPLATAFGTSSSSATLPLMMKCVEENNGVAKHISRFILPIGATVNMDGAALFQCVAAVFIAQLSQQSLDFVKIITILVTATASSVGAAGIPAGGVLTLAIILEAVNLPVDHISLILAVDWLVDRSCTVLNVEGDALGAGLLQNYVDRTESRSTEPELIQVKSELPLDPLPVPTEEGNPLLKHYRGPAGDATVASEKESVM

Target: CD147-GFP (human)
Assay: affinity purification with mass spectrometry; cells incubated with 0.5 mM DSS 30 min at RT, lysed in RIPA; 500 ug lysate on GFP-nanobody beads 1 h at 4 °C; gel, LC-MS/MS; GFP control

| Binder | binding |
| --- | --- |
| B1 | binds |
| B2 | binds |

These are yes or no findings as the source states them, for the method shown. In cells and extracts the contact can be indirect. Here binding means that the protein was enriched with, or labelled near, the bait; the list need not be complete.
